# Test results: the supplement of paper PMC4807443
# Structures can show the parent of a compound that is named as a salt. The list shows a part of the results. The numbers are fractions of the control, whatever unit the source prints. Most entries show no effect beyond the scatter of the controls.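 MIN6, a mouse insulinoma beta-cell line, stably carries a lentiviral reporter where Pdx1 and Ins1 promoters each drive a nuclear fluorescent protein; Hoechst staining and automated imaging counted cells. Drugs were candidate hits if Ins1 promoter readout exceeded two median absolute deviations from DMSO controls while Pdx1 activity stayed near normal.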
# Test system: MIN6
# Assay: % Pdx1+ Ins1+ (double-positive, mature) cells relative to DMSO control (fold of DMSO control); higher = more mature Ins1 promoter-active cells
# Details: 8.5 µM; 48 h; glucose 5 mM
row,Structure (SMILES),% Pdx1+ Ins1+
1,CN1C[C@H](CNC(=O)OCc2ccccc2)C[C@@H]2c3cccc4c3c(cn4C)C[C@H]21 [Metergoline],0.475
2,O=C(NCNC(=O)NC1C(=O)NC(=O)N1CO)NC1C(=O)NC(=O)N1CO (stereo unspecified) [Imidurea],1.05
3,CC(=O)O[C@H]1CC[C@@]2(C)C(=CC[C@@H]3[C@@H]2CC[C@]2(C)C(=O)CC[C@@H]32)C1 [Dehydroisoandosterone 3-acetate],0.869
4,COc1cc2c(c(OC)c1OC)-c1ccc(OC)c(=O)cc1[C@@H](NC(C)=O)CC2 [Colchicine],0.465
5,C[C@H]1O[C@@H](O[C@H]2CC[C@]3(C=O)[C@H]4CC[C@]5(C)[C@@H](C6=CC(=O)OC6)CC[C@]5(O)[C@@H]4CC[C@]3(O)C2)C[C@H](O)[C@@H]1O [Helveticoside],0.806
6,"COc1ccc2c(c1OC)CN1CCc3cc4c(cc3C1C2)OCO4 (stereo unspecified) [(d,l)-Tetrahydroberberine]",0.849
7,CC[N+]1(C)CCCC(OC(=O)C(O)(c2ccccc2)c2ccccc2)C1 (stereo unspecified) [Pipenzolate bromide],0.875
8,CCCCCC[C@H]1C(=O)O[C@H](C)[C@H](NC(=O)c2cccc(NC=O)c2O)C(=O)O[C@@H](C)[C@@H]1OC(=O)CC(C)C [Antimycin A],0.055
9,C=C1C/C(=C/C)C(=O)O[C@@H]2CCN3CC=C(COC(=O)[C@]1(C)O)[C@H]23 [Seneciphylline],0.804
10,c1ccc2c(c1)OCC(C1=NCCN1)O2 (stereo unspecified) [Idazoxan hydrochloride],1.01
11,C[C@@H]1C[C@@H]([C@H](O)CC2CC(=O)NC(=O)C2)C(=O)[C@@H](C)C1 [Cycloheximide],1.27
12,COc1ccc2c(c1OC)C(=O)O[C@@H]2[C@H]1c2cc3c(cc2CCN1C)OCO3 [Hydrastine hydrochloride],0.907
13,CC[C@@H](CO)NC(=O)[C@@H]1C=C2c3cccc4[nH]cc(c34)C[C@H]2N(C)C1 [Methylergometrine maleate],0.882
14,O=c1[nH]oc2c1CCNC2 [THIP Hydrochloride],1.11
15,c1cncc([C@@H]2CCCCN2)c1 [Anabasine],0.746
16,CCN1C[C@]2(COC)CC[C@H](OC)[C@]34C5C[C@@H]6[C@@H](OC)C[C@@]7(OCO[C@@]7(C13)[C@@H](O)C24)C5[C@H]6OC (stereo partly specified) [Delcorine],0.902
17,CCN1C[C@]2(COC)CC[C@H](O)[C@]34C1[C@@](O)([C@@H](OC)[C@H]23)[C@@]1(O)C[C@H](OC)[C@H]2C[C@@H]4[C@@H]1[C@H]2OC [Delsoline],0.913
18,O=[N+]([O-])O[C@H]1CO[C@H]2[C@@H]1OC[C@H]2O[N+](=O)[O-] [Isosorbide dinitrate],0.916
19,CC(N)C(O)c1ccccc1 (stereo unspecified) [Phenylpropanolamine hydrochloride],0.86
20,CC(C)C[C@H]1C(=O)N2CCC[C@H]2[C@]2(O)O[C@](NC(=O)[C@@H]3C=C4c5cccc6[nH]cc(c56)C[C@H]4N(C)C3)(C(C)C)C(=O)N12 [Ergocryptine-alpha],0.425
21,O=C(CCCN1CCC2(CC1)C(=O)NCN2c1ccccc1)c1ccc(F)cc1 [Spiperone],1.04

# As entered above.
# % Pdx1+ Ins1+ with `O=C(NCNC(=O)NC1C(=O)NC(=O)N1CO)NC1C(=O)NC(=O)N1CO` (stereo unspecified) [Imidurea] reads 1.05
# % Pdx1+ Ins1+ with `O=[N+]([O-])O[C@H]1CO[C@H]2[C@@H]1OC[C@H]2O[N+](=O)[O-]` [Isosorbide dinitrate] reads 0.916

# Remaining list, next part

row,Structure (SMILES),% Pdx1+ Ins1+
1,CC[C@@H](C)C(=O)O[C@H]1[C@H](O)[C@H]2[C@@H](CN3C[C@@H](C)CC[C@H]3[C@@]2(C)O)[C@@H]2C[C@]34O[C@]5(O)[C@@H](OC(=O)[C@@](C)(O)CC)CC[C@@]3(C)[C@@H]5[C@@H](OC(C)=O)[C@@H](OC(C)=O)[C@H]4[C@@]21O [Protoveratrine A],0.886
2,NCC1(CC(=O)O)CCCCC1 [Gabapentin],1.03
3,O=c1cccc2n1C[C@@H]1CNC[C@H]2C1 [Cytisine (-)],0.841
4,CCOC(=O)c1cncn1[C@H](C)c1ccccc1 [Etomidate],0.883
5,CN1[C@@H]2C[C@@H](OC(=O)[C@H](CO)c3ccccc3)C[C@H]1[C@@H]1O[C@@H]12 [Scopolamine hydrochloride],1.04
6,N[C@@H]1C[C@H]1c1ccccc1 [Tranylcypromine hydrochloride],1.1
7,COc1cc(C(=O)OC2CC3CCC(C2)N3C)ccc1O (stereo unspecified) [Fillalbin],0.824
8,"NCC(CC(=O)O)c1ccc(Cl)cc1 (racemic) [Baclofen (R,S)]",1.06
9,CN[C@@H]1[C@@H](O)[C@@H](O[C@@H]2[C@@H](O)[C@H](O[C@H]3O[C@H](CN)CC[C@H]3N)[C@@H](N)C[C@H]2N)OC[C@]1(C)O.CN[C@@H]1[C@@H](O)[C@@H](O[C@@H]2[C@@H](O)[C@H](O[C@H]3O[C@H]([C@@H](C)N)CC[C@H]3N)[C@@H](N)C[C@H]2N)OC[C@]1(C)O.CN[C@@H]1[C@@H](O)[C@@H](O[C@@H]2[C@@H](O)[C@H](O[C@H]3O[C@H]([C@@H](C)NC)CC[C@H]3N)[C@@H](N)C[C@H]2N)OC[C@]1(C)O [Gentamicine sulfate],1.01
10,O=C1CC[C@@]2(O)[C@H]3Cc4ccc(O)c5c4[C@@]2(CCN3CC2CC2)[C@H]1O5 [Naltrexone hydrochloride dihydrate],1.06
11,COc1ccc2c(c1O)-c1c(OC)c(OC)cc3c1[C@H](C2)N(C)CC3 [Isocorydine (+)],0.891
12,"CN1CCC2(C)c3cc(O)ccc3N(C)C12 (single isomer, unassigned; (-)) [(-)-Eseroline fumarate salt]",0.858
13,CCN1C[C@]2(C)CC[C@H](O)[C@]34C1[C@@H](C[C@H]23)[C@@]1(O)C[C@H](OC)[C@H]2C[C@@H]4[C@@H]1[C@H]2O [Karakoline],0.888
14,CC(NC(C)(C)C)C(=O)c1cccc(Cl)c1 (stereo unspecified) [Bupropion hydrochloride],0.557
15,O=c1ccc2cc(O[C@@H]3O[C@H](CO)[C@@H](O)[C@H](O)[C@H]3O)c(O)cc2o1 [Esculin Hydrate],0.924
16,O=c1c2ccccc2[se]n1-c1ccccc1 [Ebselen],0.817
17,CC(=O)O[C@H]1C[C@@H]2CC[C@@H]3[C@H](CC[C@@]4(C)[C@H]3C[C@H]([N+]3(C)CCCCC3)[C@@H]4OC(C)=O)[C@@]2(C)C[C@@H]1[N+]1(C)CCCCC1 [Pancuronium bromide],0.955
18,COc1c2c(cc3c1OCO3)CCN(C)C2 [Hydrocotarnine hydrobromide],0.865
19,C=CCN1CC[C@]23c4c5ccc(O)c4O[C@H]2C(=O)CC[C@@]3(O)[C@H]1C5 [Naloxone hydrochloride],0.972
20,C[C@]12C[C@H]3S[C@H]3C[C@@H]1CC[C@@H]1[C@@H]2CC[C@]2(C)[C@@H](O)CC[C@@H]12 [Epitiostanol],0.869
21,COP(=O)(OC)C(O)C(Cl)(Cl)Cl (stereo unspecified) [Trichlorfon],1.22

# A run of entries taken from the entries so far, for reference:
row,Structure (SMILES),% Pdx1+ Ins1+
14,CC(NC(C)(C)C)C(=O)c1cccc(Cl)c1 (stereo unspecified) [Bupropion hydrochloride],0.557
15,O=c1ccc2cc(O[C@@H]3O[C@H](CO)[C@@H](O)[C@H](O)[C@H]3O)c(O)cc2o1 [Esculin Hydrate],0.924

# (next part)

row,Structure (SMILES),% Pdx1+ Ins1+
1,C[C@H]1CC[C@]2(NC1)O[C@H]1C[C@H]3[C@@H]4CC[C@H]5C[C@@H](O)CC[C@]5(C)[C@H]4CC[C@]3(C)[C@H]1[C@@H]2C [Tomatidine],0.922
2,C(#CCN1CCCC1)CN1CCCC1 [Tremorine dihydrochloride],1.03
3,C[C@]12CCC(=O)C=C1C=C[C@@H]1[C@@H]2CC[C@@]2(C)[C@H]1CC[C@@]2(O)CCC(=O)O [Canrenoic acid potassium salt],1
4,C[C@H](N)[C@H](O)c1ccc(O)c(O)c1 [Levonordefrin],0.746
5,CC(C)N(CCC(C(N)=O)(c1ccccc1)c1ccccn1)C(C)C (stereo unspecified) [Disopyramide],1.09
6,CCN1C[C@]2(C)CC[C@H](OC)[C@@]34C1[C@]1(OCO[C@@]15C[C@H](OC)[C@H]1C[C@]3(O)[C@@H]5[C@H]1OC)[C@@H](OC(C)=O)[C@H]24 [Deltaline],0.897
7,CC[C@H]1CN2CCc3cc(OC)c(OC)cc3[C@@H]2C[C@@H]1C[C@H]1NCCc2cc(O)c(OC)cc21 [Cephaeline dihydrochloride heptahydrate],0.745
8,CN1[C@@H]2CC[C@H]1C[C@@H](OC(=O)[C@H](CO)c1ccccc1)C2 [Hyoscyamine (L)],0.873
9,COc1ccc(CN2CCNCC2)c(OC)c1OC [Trimetazidine dihydrochloride],0.963
10,CC(C)[N+](C)(CCC(C(N)=O)(c1ccccc1)c1ccccc1)C(C)C [Isopropamide iodide],0.873
11,C/C=C1/C[N+]2(C)CCC34C(=C(C=O)[C@H]1C[C@@H]32)Nc1ccccc14 (stereo partly specified) [Fluorocurarine chloride],0.848
12,C#C[C@]1(O)CC[C@H]2[C@@H]3CCC4=CC(=O)CC[C@]4(C)[C@H]3CC[C@@]21C [Ethisterone],1.12
13,C=C1[C@H]2C[C@@]3([C@@H]1O)[C@@H](C[C@@H]2O)[C@]12[C@@H]4C[C@H]3[C@H]1N(CC)C[C@]4(C)CC[C@@H]2O [Napelline],0.808
14,O=c1[nH]c2ccccc2n1CCCN1CCC(n2c(=O)[nH]c3cc(Cl)ccc32)CC1 [Domperidone maleate],0.915
15,C[C@]12CC[C@H]3[C@@H](CC[C@]4(O)C[C@@H](O)CC[C@]34C=O)[C@@]1(O)CC[C@@H]2C1=CC(=O)OC1 [Strophanthidin],0.882
16,CCN(CC)C(=O)N[C@H]1C=C2c3cccc4[nH]cc(c34)C[C@H]2N(C)C1 [Lisuride (S)(-)],1.08
17,S=C(NC1CCCCC1)N1CCC(c2cnc[nH]2)CC1 [Thioperamide maleate],0.786
18,CN1[C@@H]2CCC[C@H]1CC(=O)C2 [Pseudopelletierine hydrochloride],0.925
19,"NC(N)=NOCC[C@H](N)C(=O)O [Canavanine sulfate monohydrate (L,+)]",0.894
